This note sets out measurements from article PMC6210734, “Unliganded Progesterone Receptor Governs Estrogen Receptor Gene Expression by Regulating DNA Methylation in Breast Cancer Cells”.

The target in the data set is T1, Progesterone receptor isoform B (PR-B) (Homo sapiens) (UniProt P06401).
T1 sequence (looked up, limits assumed): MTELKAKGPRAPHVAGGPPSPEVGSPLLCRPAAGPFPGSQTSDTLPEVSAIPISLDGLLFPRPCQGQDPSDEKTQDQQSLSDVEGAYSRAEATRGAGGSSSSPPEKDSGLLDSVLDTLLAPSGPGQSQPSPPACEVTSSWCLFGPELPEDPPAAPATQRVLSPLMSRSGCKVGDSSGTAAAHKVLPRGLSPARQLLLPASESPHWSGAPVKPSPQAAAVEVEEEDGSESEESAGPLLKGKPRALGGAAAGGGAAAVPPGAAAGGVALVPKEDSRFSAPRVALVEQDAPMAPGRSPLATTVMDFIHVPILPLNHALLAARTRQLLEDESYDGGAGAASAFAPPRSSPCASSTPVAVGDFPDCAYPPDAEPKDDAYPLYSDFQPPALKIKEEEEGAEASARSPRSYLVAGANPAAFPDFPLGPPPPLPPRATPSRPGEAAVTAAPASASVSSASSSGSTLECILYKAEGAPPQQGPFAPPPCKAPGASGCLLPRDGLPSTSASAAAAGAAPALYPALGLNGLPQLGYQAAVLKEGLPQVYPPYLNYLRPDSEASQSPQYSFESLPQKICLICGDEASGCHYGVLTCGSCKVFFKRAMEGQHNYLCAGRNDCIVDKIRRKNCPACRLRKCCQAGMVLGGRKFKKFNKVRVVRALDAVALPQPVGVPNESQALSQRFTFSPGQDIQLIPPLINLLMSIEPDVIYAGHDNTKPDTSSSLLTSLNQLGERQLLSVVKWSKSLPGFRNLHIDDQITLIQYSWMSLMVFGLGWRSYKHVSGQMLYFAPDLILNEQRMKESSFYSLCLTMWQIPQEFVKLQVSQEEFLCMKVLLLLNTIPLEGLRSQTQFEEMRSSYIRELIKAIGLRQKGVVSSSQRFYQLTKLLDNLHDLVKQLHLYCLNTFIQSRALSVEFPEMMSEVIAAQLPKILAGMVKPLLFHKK
In words: EMSA. The following applies: EMSA: 20 min at room temperature, 5% acrylamide-bisacrylamide gel, salt and pH not stated, recombinant protein.

Setting [1] is: less than no-CpG PRE, more than methylated.

For at least one entry, the source does not settle the construct or the ends of the probe. Weaker means in comparison with the reference protein, sequence or condition of that experiment. Tags and fusion partners may be left off the protein sequences shown.

Take “GTTGAGTCAGAACGGTTCGTTCTCTAGGCAC (double strand) [PRE two CpGs, methylated]”: where the note is “less than unmethylated two-CpG PRE, 5-methylcytosine (printed 'methylated cytosine') at C13 and C18 of reverse strand, only one forward strand listed, no methylation marked on it (hemimethylated)”, the binding result is “binds more weakly”. With “GTTGAGTCAGAACGGTTCGTTCTCTAGGCAC (double strand) [PRE two CpGs, unmethylated]”, under setting [1], the binding result was “binds more weakly”. For the sequence “GTTGAGTCAGAACGGTTTGTTCTCTAGGCAC (double strand) [PRE one CpG, methylated]”, the binding result (less than unmethylated one-CpG PRE, 5-methylcytosine (printed 'methylated cytosine') at C18 of reverse strand, only one forward strand listed, no methylation marked on it (hemimethylated)) is listed as “binds more weakly”. Consider “GTTGAGTCAGAACGGTTTGTTCTCTAGGCAC (double strand) [PRE one CpG, unmethylated]”, for which the binding result under setting [1] is listed as “binds more weakly”.
